Laboratory results as given in publication PMC6389858.
A negative result means that nothing was seen under these conditions. Protein sequences can lack the tags named with them.

Target: T1, OxyR (UniProt P0ACQ4)
T1 sequence (looked up): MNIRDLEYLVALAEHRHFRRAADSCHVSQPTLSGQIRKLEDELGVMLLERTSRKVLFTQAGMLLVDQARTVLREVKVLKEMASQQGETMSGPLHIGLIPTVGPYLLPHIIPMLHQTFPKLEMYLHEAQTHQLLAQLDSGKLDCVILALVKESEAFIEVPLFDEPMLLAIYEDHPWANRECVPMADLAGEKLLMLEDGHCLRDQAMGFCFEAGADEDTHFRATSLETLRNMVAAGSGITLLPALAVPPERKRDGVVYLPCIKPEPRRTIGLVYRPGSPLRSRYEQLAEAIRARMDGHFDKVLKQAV
Assay: EMSA
Settings: poly dI-dC, same conditions as PelaB-S, EMSA: 10 mM HEPES pH 7.3, 20 mM KCl, 1 mM MgCl2, 5% glycerol, NP-40, 25 C, 2 h, 6% DNA retardation gel, recombinant protein, residues 1-305, protein details: C-terminal His6, label: biotin 3' end, probe letters rebuilt from the primers and the genome

## TCTCGTTCTCCATTTGCGTAAAACCTGTCACTAACTCCCCATGGACACACACAGTCCGACCTGAAGTTTACTCTCAAGAATCCCAATGTGTGGGATACCATCTTCTTCATAGACCTCCGTCACAGGGATAAAACCGAAACTCTGGTAGAAGTTTTGCAGATGCGCCTGCGCCCCGAGGTAAACAGGCTTATCAGGCCAGT (double strand) [PelaB-SM (mutated OxyR binding site 2)]
  binding result: no binding
